Five substances from publication doi:10.1101/2022.11.22.517594 can be followed below.

The chains behind the UniProt entries cited, without tags or fusion partners. Where a name states a change or a piece, a line headed by the entry shows the natural chain unless it says otherwise. A line that says so, or that is headed by a name, gives the form on record, which may keep a tag or linker.
UniProt Q14145: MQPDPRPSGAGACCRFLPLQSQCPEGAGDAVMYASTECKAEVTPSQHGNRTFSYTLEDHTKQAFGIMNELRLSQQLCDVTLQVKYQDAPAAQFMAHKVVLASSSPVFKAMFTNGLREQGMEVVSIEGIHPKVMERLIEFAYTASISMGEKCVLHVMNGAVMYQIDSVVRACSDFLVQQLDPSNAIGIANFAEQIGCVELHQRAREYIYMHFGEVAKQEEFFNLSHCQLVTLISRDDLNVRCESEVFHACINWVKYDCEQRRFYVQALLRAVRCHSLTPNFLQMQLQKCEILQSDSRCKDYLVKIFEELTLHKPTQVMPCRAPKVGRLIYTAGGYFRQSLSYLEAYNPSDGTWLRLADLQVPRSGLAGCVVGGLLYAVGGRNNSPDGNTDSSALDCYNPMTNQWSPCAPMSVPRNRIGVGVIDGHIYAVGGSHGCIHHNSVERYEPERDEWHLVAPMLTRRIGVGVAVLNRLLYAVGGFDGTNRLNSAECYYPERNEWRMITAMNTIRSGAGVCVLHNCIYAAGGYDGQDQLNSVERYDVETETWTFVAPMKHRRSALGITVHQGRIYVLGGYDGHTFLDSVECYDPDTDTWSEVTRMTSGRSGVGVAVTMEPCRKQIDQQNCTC
UniProt P84022: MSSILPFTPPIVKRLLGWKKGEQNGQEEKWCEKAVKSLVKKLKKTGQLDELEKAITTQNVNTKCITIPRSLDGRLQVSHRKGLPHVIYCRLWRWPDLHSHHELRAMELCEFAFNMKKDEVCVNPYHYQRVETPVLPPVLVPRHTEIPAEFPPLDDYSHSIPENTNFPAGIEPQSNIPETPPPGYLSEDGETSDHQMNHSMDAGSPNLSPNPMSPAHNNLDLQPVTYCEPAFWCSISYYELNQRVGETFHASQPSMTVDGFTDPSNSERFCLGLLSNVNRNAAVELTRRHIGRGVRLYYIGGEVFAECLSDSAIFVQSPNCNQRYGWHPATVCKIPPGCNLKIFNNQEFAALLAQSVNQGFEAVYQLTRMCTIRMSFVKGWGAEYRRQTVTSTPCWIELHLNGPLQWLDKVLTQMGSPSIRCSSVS
UniProt Q15796: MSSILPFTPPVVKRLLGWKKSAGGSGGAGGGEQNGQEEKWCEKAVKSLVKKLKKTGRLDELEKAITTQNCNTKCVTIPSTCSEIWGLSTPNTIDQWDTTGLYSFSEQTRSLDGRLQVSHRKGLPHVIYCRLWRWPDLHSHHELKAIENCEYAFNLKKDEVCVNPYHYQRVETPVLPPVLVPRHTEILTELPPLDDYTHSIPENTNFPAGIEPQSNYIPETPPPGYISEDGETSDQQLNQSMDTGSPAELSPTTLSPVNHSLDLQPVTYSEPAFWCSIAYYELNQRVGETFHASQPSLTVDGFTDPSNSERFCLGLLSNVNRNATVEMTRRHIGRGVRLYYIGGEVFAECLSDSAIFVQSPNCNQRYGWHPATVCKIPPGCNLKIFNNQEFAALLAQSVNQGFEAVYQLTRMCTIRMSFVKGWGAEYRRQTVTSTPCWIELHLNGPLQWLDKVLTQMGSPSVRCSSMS
Smad2^△228-264-Flag (Q15796-1, form named): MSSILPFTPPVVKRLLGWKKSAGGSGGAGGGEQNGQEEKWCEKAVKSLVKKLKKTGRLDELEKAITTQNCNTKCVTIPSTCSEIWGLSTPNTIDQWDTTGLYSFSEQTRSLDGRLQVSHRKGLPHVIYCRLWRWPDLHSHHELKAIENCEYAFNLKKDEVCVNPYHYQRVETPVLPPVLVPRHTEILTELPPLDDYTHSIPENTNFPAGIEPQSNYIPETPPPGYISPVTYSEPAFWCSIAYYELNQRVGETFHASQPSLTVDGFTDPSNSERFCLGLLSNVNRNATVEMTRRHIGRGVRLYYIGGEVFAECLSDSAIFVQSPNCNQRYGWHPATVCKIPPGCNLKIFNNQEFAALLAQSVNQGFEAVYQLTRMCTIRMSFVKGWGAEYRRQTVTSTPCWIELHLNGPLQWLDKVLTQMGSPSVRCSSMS

Among the targets are V5-tagged Keap1β (human) (UniProt Q14145); Smad3-Flag (human) (UniProt P84022); Smad2-Flag (human) (UniProt Q15796).
Common to all, as to assay: co-IP
For assay [1], the target named is V5-tagged Keap1 (Kelch-like ECH-associated protein 1) (human) (UniProt Q14145).

These are yes or no findings as the source states them, for the method shown. Binding seen in cells or lysates may run through a third protein. Some binding calls cover weakened binding; strength is not graded here.

Consider “Smad2-Flag (from UniProt Q15796-1 1-467)”, for which the binding result (in the assay with V5-tagged Keap1β (human); in assay [1]) was “binds” each time.

For “Smad3-Flag (from UniProt P84022-1 1-425)”, the binding entry (with V5-tagged Keap1β (human); in assay [1]) was “binds” each time.

As for “V5-tagged Keap1 (Kelch-like ECH-associated protein 1) (from UniProt Q14145 1-624)”, the binding entry with Smad3-Flag (human) and in the assay with Smad2-Flag (human) was “binds” throughout.

As for “V5-tagged Keap1β (from UniProt Q14145 32-624)”, the binding result with Smad3-Flag (human) and with Smad2-Flag (human) was “binds” in each case.

In the case of “Smad2^△228-264-Flag (from UniProt Q15796-1 1-467)”, the binding result in assay [1] was “no binding”.
